Laboratory results: the supplement of paper PMC6411743
± gives the standard deviation of the averaged measurements. Some of the results follow.

Sequences of proteins named here, by UniProt entry; tags and fusion partners are left off. A change or cut given only in a name is not applied to a line headed by its entry.
UniProt P51452: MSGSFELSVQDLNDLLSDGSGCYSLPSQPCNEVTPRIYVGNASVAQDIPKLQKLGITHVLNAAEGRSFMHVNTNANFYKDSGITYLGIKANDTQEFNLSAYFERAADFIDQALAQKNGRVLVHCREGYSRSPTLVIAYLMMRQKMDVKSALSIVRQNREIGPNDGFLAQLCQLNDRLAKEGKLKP
UniProt P51790: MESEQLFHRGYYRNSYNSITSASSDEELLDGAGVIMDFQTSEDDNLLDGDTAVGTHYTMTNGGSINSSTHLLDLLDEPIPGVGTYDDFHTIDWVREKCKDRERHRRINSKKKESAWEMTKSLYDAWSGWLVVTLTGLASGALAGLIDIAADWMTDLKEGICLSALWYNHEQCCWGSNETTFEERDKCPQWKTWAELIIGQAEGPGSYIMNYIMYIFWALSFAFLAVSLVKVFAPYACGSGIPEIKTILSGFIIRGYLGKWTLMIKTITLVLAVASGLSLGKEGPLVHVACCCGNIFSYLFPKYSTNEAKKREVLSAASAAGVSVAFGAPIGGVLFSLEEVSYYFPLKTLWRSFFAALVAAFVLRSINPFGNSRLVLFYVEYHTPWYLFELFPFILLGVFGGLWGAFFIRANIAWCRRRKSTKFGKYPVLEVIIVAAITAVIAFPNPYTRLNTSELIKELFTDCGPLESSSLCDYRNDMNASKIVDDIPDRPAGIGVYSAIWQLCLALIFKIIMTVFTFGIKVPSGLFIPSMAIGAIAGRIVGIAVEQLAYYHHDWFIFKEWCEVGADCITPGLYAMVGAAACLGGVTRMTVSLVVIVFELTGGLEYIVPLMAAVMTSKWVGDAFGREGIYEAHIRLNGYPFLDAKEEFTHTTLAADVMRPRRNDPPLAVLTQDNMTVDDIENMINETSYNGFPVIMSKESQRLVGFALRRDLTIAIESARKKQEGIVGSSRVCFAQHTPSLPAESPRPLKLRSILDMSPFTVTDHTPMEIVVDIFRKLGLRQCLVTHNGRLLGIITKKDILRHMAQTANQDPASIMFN
UniProt P52630: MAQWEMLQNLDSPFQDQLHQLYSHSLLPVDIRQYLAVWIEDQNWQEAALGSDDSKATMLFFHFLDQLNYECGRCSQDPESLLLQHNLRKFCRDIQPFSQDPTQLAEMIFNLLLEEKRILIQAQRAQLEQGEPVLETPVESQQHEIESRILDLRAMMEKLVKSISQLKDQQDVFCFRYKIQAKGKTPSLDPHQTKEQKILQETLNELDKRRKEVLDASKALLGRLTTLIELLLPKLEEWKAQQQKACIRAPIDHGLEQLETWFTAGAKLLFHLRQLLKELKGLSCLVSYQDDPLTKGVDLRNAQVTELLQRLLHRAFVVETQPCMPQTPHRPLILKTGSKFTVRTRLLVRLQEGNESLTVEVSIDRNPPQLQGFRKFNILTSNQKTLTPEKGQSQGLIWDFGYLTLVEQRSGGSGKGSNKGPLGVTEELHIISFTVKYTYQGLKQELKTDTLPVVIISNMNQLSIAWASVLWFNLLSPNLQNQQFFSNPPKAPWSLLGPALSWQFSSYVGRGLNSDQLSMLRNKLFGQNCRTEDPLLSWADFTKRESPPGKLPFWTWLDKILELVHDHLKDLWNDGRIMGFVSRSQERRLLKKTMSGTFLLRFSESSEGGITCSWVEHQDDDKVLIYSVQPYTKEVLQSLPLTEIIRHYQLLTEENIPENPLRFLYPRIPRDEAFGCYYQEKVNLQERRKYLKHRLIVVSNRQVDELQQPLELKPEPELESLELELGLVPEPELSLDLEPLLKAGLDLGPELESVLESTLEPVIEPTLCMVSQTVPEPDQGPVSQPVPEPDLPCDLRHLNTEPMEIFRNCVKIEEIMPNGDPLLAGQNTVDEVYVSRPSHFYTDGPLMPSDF
UniProt P62834: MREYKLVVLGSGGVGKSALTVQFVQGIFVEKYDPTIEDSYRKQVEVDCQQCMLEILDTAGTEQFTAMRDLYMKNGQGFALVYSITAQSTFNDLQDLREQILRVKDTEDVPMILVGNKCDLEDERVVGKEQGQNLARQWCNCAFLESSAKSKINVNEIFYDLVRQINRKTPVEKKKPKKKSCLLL
UniProt P51809, whole entry: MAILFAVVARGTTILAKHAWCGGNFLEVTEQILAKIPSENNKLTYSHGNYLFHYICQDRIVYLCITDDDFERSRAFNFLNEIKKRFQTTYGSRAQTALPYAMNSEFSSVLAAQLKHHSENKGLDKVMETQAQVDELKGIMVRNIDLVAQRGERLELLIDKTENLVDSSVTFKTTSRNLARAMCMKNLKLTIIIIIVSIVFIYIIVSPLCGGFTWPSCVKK
UniProt P61758, whole entry: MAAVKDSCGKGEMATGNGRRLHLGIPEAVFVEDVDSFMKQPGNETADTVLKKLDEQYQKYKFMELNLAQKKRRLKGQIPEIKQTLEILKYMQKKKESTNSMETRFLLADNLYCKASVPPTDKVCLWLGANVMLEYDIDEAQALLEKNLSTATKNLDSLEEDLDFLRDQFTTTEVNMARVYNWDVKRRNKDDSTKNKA
UniProt P61006: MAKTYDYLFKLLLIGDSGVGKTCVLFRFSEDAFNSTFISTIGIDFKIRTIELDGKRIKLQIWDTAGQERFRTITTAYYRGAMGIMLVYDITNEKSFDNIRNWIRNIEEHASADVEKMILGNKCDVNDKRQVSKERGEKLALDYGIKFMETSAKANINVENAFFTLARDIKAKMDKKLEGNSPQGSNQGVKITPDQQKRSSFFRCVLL
UniProt P61026: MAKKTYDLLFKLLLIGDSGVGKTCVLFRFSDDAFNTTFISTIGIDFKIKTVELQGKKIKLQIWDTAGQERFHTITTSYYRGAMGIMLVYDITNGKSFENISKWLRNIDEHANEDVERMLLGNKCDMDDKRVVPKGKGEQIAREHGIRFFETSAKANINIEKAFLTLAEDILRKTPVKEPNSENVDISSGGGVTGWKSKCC
UniProt P61970, whole entry: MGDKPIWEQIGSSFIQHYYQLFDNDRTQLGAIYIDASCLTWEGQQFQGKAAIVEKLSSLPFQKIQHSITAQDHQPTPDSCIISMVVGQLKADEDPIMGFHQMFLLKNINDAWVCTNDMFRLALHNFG
UniProt P62330: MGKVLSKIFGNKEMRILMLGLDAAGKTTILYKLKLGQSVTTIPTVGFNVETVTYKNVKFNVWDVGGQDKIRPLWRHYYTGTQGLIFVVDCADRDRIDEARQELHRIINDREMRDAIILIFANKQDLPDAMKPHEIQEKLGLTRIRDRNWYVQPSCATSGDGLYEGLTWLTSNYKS
UniProt P50897: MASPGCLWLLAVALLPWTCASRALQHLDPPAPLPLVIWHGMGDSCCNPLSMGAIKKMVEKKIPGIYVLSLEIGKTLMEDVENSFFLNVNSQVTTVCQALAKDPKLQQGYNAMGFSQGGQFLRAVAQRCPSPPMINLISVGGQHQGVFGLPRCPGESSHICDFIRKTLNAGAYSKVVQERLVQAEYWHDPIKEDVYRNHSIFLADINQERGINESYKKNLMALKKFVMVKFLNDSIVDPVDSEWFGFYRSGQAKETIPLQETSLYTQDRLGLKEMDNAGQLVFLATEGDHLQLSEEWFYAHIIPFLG
UniProt P68036, whole entry: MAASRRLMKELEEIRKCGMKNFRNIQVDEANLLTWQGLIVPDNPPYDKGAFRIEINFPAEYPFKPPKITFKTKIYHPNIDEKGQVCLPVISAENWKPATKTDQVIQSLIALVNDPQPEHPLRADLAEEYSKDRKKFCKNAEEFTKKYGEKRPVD
UniProt P78371: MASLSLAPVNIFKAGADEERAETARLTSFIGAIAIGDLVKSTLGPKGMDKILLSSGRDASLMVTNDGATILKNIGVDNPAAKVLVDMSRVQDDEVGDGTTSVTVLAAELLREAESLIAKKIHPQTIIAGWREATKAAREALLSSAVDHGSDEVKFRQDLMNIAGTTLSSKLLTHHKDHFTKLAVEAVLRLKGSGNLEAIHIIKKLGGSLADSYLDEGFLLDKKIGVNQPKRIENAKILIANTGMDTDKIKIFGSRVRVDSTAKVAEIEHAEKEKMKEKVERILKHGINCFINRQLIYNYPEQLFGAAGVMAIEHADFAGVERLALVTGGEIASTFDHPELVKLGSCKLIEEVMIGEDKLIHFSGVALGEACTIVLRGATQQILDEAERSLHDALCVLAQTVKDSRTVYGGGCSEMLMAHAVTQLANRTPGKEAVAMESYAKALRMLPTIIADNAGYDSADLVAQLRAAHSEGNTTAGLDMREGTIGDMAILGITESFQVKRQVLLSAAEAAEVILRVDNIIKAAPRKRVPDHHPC
UniProt P55273: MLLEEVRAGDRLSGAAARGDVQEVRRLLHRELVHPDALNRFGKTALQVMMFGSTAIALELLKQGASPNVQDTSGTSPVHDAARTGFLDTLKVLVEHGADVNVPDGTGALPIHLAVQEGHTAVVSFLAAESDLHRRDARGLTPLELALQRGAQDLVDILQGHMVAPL
UniProt P60983, whole entry: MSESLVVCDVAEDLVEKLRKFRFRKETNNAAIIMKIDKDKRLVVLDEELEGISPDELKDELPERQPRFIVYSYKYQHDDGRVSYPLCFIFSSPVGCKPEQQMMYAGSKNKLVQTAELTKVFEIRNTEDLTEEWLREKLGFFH
UniProt P62820, whole entry: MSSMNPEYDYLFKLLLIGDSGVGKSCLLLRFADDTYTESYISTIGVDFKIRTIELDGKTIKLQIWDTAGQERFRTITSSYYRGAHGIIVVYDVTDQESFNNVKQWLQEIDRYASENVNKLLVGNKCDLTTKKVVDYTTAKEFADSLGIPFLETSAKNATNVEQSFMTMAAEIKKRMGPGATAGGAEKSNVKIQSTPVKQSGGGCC
UniProt P53618: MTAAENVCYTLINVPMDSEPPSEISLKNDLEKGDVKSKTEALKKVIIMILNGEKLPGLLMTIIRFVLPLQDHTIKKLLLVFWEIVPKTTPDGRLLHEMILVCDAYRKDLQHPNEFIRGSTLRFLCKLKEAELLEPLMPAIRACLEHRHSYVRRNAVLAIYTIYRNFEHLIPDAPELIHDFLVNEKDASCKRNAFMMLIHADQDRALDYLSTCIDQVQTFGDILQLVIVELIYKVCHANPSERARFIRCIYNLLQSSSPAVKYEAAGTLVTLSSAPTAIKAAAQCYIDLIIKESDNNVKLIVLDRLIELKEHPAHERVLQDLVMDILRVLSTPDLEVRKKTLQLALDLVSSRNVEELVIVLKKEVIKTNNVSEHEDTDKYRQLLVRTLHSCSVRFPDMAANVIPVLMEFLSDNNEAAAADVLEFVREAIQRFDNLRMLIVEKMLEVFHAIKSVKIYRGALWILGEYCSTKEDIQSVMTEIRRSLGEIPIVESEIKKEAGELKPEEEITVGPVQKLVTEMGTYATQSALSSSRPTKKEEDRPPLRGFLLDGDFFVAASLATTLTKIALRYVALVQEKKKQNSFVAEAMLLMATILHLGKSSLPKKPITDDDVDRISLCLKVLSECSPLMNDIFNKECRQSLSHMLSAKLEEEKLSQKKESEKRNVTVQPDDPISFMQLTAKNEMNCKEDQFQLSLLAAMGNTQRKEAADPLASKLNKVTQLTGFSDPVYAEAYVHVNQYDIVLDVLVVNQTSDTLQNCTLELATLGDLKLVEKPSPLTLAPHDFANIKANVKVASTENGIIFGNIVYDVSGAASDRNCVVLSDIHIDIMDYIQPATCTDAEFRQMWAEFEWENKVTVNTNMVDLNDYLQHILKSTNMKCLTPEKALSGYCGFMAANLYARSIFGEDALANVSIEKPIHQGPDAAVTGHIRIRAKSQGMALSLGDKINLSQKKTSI
UniProt P51148: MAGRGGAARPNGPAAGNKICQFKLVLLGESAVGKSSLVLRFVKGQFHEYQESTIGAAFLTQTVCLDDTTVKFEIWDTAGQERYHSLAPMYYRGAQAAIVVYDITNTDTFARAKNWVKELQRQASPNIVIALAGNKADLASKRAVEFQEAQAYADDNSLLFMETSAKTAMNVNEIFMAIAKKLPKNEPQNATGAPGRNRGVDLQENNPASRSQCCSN
UniProt P56159: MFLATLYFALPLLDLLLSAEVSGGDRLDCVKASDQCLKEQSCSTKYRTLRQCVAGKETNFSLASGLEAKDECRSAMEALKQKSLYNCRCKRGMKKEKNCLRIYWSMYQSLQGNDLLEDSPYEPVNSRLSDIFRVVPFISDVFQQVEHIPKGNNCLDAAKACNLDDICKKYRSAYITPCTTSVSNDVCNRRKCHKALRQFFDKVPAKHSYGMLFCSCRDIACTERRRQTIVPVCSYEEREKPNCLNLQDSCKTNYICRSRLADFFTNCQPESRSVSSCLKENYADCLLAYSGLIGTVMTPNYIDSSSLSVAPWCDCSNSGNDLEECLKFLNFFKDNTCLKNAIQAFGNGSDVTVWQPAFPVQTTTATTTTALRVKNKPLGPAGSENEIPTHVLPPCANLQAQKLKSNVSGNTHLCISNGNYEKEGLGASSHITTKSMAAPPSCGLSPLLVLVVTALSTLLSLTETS
UniProt P60468, whole entry: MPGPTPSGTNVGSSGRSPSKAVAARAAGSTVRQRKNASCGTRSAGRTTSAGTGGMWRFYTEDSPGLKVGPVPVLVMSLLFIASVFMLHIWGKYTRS

Compound: Nc1nc2c(ncn2[C@@H]2O[C@H](COP(=O)(O)OP(=O)(O)OP(=O)(O)O)[C@@H](O)[C@H]2O)c(=O)[nH]1 [guanosine triphosphate]
Assay: NP40-soluble protein abundance relative to vehicle (solubility fold change) (ratio); higher = more soluble protein in presence of GTP
Summary of the method: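 Jurkat crude lysate prepared with a Dounce homogeniser was treated at eight concentrations spanning 0.1 to 10 mM, 10 min at room temperature then 3 min at 37 °C. Solubilisation with 0.8% NP40 and benzonase and ultracentrifugation preceded TMT labelling of the supernatant for LC-MS/MS. Fold change against the detergent-processed vehicle was determined per replicate from vsn-normalised intensities, across three independent experiments.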

Target	NP40-soluble protein abundance (concentration: 0.1mM)	NP40-soluble protein abundance (concentration: 0.5mM)	NP40-soluble protein abundance (concentration: 1mM)	NP40-soluble protein abundance (concentration: 2mM)	NP40-soluble protein abundance (concentration: 4mM)	NP40-soluble protein abundance (concentration: 6mM)	NP40-soluble protein abundance (concentration: 8mM)	NP40-soluble protein abundance (concentration: 10mM)
UniProt P51452 and related entries	0.901 ± 0.11	0.848 ± 0.085	0.898 ± 0.12	0.874 ± 0.094	0.897 ± 0.12	0.853 ± 0.11	0.821 ± 0.17	0.851 ± 0.12
UniProt P51790 and related entries	1.06 ± 0.039	0.966 ± 0.056	1 ± 0.038	0.977 ± 0.028	1.04 ± 0.051	0.9855 ± 0.0084	1.002 ± 0.0032	0.953 ± 0.037
UniProt P52630 and related entries	1.01 ± 0.15	0.979 ± 0.18	0.897 ± 0.1	0.91 ± 0.061	0.945 ± 0.068	0.915 ± 0.058	0.947 ± 0.086	0.898 ± 0.1
MRPS15 (UniProt P82914)	1.02 ± 0.13	1.12 ± 0.19	1.3 ± 0.25	1.47 ± 0.33	1.54 ± 0.41	1.49 ± 0.4	1.46 ± 0.41	1.49 ± 0.46
UniProt P62834	0.978 ± 0.15	0.99 ± 0.14	0.914 ± 0.14	0.907 ± 0.096	0.904 ± 0.14	0.879 ± 0.14	0.881 ± 0.07	0.913 ± 0.069
UniProt P51809 and related entries	0.982 ± 0.021	0.933 ± 0.039	0.817 ± 0.015	0.868 ± 0.061	0.878 ± 0.042	0.811 ± 0.052	0.778 ± 0.1	0.807 ± 0.09
UniProt P50851-2	1.02 ± 0.011	1.07 ± 0.015	1.006 ± 0.0086	1.01 ± 0.018	0.984 ± 0.026	0.99 ± 0.021	0.981 ± 0.011	0.966 ± 0.03
VBP1 (UniProt P61758)	0.9064 ± 0.009	0.9 ± 0.013	0.978 ± 0.064	0.935 ± 0.015	0.912 ± 0.04	0.949 ± 0.027	0.994 ± 0.044	1.04 ± 0.087
RAB8A (UniProt P61006)	0.928 ± 0.03	0.95 ± 0.039	0.903 ± 0.041	0.849 ± 0.068	0.812 ± 0.064	0.858 ± 0.085	0.828 ± 0.046	0.81 ± 0.075
UniProt P61026	0.999 ± 0.018	0.988 ± 0.062	0.905 ± 0.048	0.852 ± 0.021	0.846 ± 0.1	0.848 ± 0.011	0.803 ± 0.068	0.761 ± 0.078
UniProt P61970	1.03 ± 0.1	0.927 ± 0.091	1.04 ± 0.12	0.886 ± 0.12	0.993 ± 0.2	0.895 ± 0.094	0.977 ± 0.19	0.858 ± 0.14
UniProt P62330	1.08 ± 0.017	1.08 ± 0.049	0.947 ± 0.017	0.997 ± 0.15	0.964 ± 0.12	0.926 ± 0.11	0.854 ± 0.1	0.816 ± 0.15
PPT1 (UniProt P50897)	0.888 ± 0.06	0.859 ± 0.12	0.968 ± 0.083	0.872 ± 0.12	0.873 ± 0.068	0.887 ± 0.11	0.876 ± 0.059	0.861 ± 0.099
UniProt P68036 and related entries	0.857 ± 0.083	0.834 ± 0.037	0.99 ± 0.077	0.961 ± 0.041	0.909 ± 0.087	0.951 ± 0.081	0.877 ± 0.16	0.976 ± 0.15
BLM (UniProt P54132)	1.01 ± 0.04	1.02 ± 0.026	0.998 ± 0.013	0.99 ± 0.063	1 ± 0.051	1.02 ± 0.044	1.02 ± 0.064	0.997 ± 0.011
CCT2 (UniProt P78371)	1 ± 0.021	1.06 ± 0.07	1.07 ± 0.12	1.08 ± 0.16	1.08 ± 0.18	1.07 ± 0.19	1.06 ± 0.19	0.999 ± 0.19
CDKN2D (UniProt P55273)	0.954 ± 0.083	0.891 ± 0.14	0.967 ± 0.077	0.97 ± 0.1	0.903 ± 0.093	0.935 ± 0.13	0.844 ± 0.14	0.895 ± 0.047
UniProt P62854	0.922 ± 0.046	0.897 ± 0.063	0.96 ± 0.11	0.961 ± 0.13	0.944 ± 0.14	0.905 ± 0.15	0.697 ± 0.11	0.973 ± 0.17
UniProt P60983 and related entries	0.945 ± 0.13	0.871 ± 0.062	1.05 ± 0.15	1.03 ± 0.085	1.02 ± 0.091	0.986 ± 0.099	0.976 ± 0.14	0.994 ± 0.087
UniProt P62280	0.928 ± 0.011	1.01 ± 0.065	0.997 ± 0.16	0.931 ± 0.19	0.848 ± 0.25	0.82 ± 0.24	0.716 ± 0.2	0.767 ± 0.26
UniProt P62820	0.925 ± 0.052	0.941 ± 0.016	0.94 ± 0.058	0.881 ± 0.091	0.855 ± 0.11	0.895 ± 0.1	0.903 ± 0.06	0.879 ± 0.078
COPB1 (UniProt P53618)	1.05 ± 0.067	1.09 ± 0.08	1.01 ± 0.07	1.05 ± 0.11	1.04 ± 0.12	1.02 ± 0.11	1.02 ± 0.084	0.991 ± 0.074
UniProt P51148 and related entries	0.87 ± 0.097	0.944 ± 0.058	0.808 ± 0.064	0.829 ± 0.018	0.772 ± 0.029	0.826 ± 0.024	0.734 ± 0.076	0.795 ± 0.069
MRPS9 (UniProt P82933)	1.1 ± 0.086	1.18 ± 0.16	1.23 ± 0.25	1.34 ± 0.31	1.37 ± 0.37	1.3 ± 0.33	1.32 ± 0.36	1.21 ± 0.33
UniProt P56159 and related entries	0.981 ± 0.067	0.999 ± 0.065	0.966 ± 0.071	0.997 ± 0.082	0.96 ± 0.059	0.994 ± 0.089	0.938 ± 0.1	0.982 ± 0.056
SEC61B (UniProt P60468)	0.9 ± 0.16	0.839 ± 0.099	1.02 ± 0.16	1.04 ± 0.12	0.994 ± 0.14	1.01 ± 0.077	0.887 ± 0.16	1.09 ± 0.22
UniProt P56181-2|P56181	0.987 ± 0.04	1.03 ± 0.032	1.09 ± 0.072	1.1 ± 0.071	1.1 ± 0.091	1.12 ± 0.091	1.22 ± 0.16	1.23 ± 0.18
MRPS35 (UniProt P82673)	1.01 ± 0.18	1.07 ± 0.2	1.23 ± 0.34	1.31 ± 0.33	1.29 ± 0.35	1.26 ± 0.35	1.19 ± 0.35	1.17 ± 0.37

Two entries picked at random from the list so far, as already listed:
Target	NP40-soluble protein abundance (concentration: 0.1mM)	NP40-soluble protein abundance (concentration: 0.5mM)	NP40-soluble protein abundance (concentration: 1mM)	NP40-soluble protein abundance (concentration: 2mM)	NP40-soluble protein abundance (concentration: 4mM)	NP40-soluble protein abundance (concentration: 6mM)	NP40-soluble protein abundance (concentration: 8mM)	NP40-soluble protein abundance (concentration: 10mM)
PPT1 (UniProt P50897)	0.888 ± 0.06	0.859 ± 0.12	0.968 ± 0.083	0.872 ± 0.12	0.873 ± 0.068	0.887 ± 0.11	0.876 ± 0.059	0.861 ± 0.099
VBP1 (UniProt P61758)	0.9064 ± 0.009	0.9 ± 0.013	0.978 ± 0.064	0.935 ± 0.015	0.912 ± 0.04	0.949 ± 0.027	0.994 ± 0.044	1.04 ± 0.087
